Values from PubChem BioAssay AID1508588 (Peter MacCallum Cancer Centre, 2020).

- Screen: 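Genome-wide search for knock-downs that heighten vemurafenib action in melanoma cells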 (primary screen)
- Cell system: human WM266.4 melanoma cells (BRAF V600 mutant)
- Reagents: siRNA pool against human genes, 40 nM
- Duration: 96 h from transfection to read-out
- Conditions: vemurafenib 300 nM (about IC25), added 48 h after transfection, for 48 h; comparison arm got DMSO vehicle only
- Measured: 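Ratios to non-targeting siRNA for cell gain, counted as DAPI nuclei after minus before drug and averaged over two replicates, and for absorbance-read medium lactate per cell; both binned into fold-change classes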
- Reading the numbers: cell gain with vemurafenib: higher = more cell gain than with non-targeting siRNA; lactate per cell with vemurafenib: higher = more lactate made per cell
- Call rule: 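Enhancement is called by pairing each knock-down's vehicle-arm and drug-arm fold-change classes for viability or glycolysis; which class combinations qualify is not given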
- Calls: active = enhances vemurafenib effect; inactive = no enhancement seen
In all, the deposit lists about 18,000 reagents; this is a random part of them. 790 of them (4.4%) were called active. 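Calls rest on a combination of fold-change classes in drug and vehicle arms, not all shown here.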

Target gene | cell gain with vemurafenib | lactate per cell with vemurafenib | activity call
ACBD5 | 0.7 | 0.72 | inactive
FER | 0.67 | 0.56 | inactive
TMEM63B | 0.39 | 0.66 | inactive
BSN | 0.96 | 0.94 | inactive
TRIP13 | 0.7 | 1.17 | inactive
DCLK3 | 0.93 | 0.64 | inactive
ELAVL3 | 0.04 | 1.55 | inactive
CHRNB2 | 0.5 | 0.98 | inactive
PMF1 | 0.3 | 0.57 | inactive
SSC4D | 0.55 | 0.76 | inactive
WDFY2 | 0.57 | 1.58 | inactive
ENTREP1 | 0.18 | 1.52 | inactive
UCHL1 | 0.58 | 1.12 | inactive
SPAG6 | 0.18 | 0.8 | inactive
KRT17 | 0.57 | 1.03 | inactive
RXRA | 0.65 | 1.73 | inactive
OR5M3 | 0.56 | 1.8 | inactive
CAPN10 | 0.2 | 1.27 | inactive
FAM161B | 0.34 | 1.12 | inactive
ISCU | -0.1 | 4.44 | inactive
MRAP2 | 0.74 | 1.62 | inactive
RGS7 | 1.34 | 0.76 | inactive
ABHD17AP1 | 0.64 | 0.54 | inactive
AK3 | 0.65 | 1.49 | inactive
CLEC18B | 1.13 | 0.88 | inactive
AQP8 | 0.47 | 1.23 | inactive
PROX2 | 0.77 | 0.17 | active
SCRIB | 0.71 | 0.6 | inactive
SI | 0.45 | 1.35 | inactive
POU6F1 | 0.9 | 0.9 | inactive
NUP98 | 0.18 | 1.34 | inactive
CDKN2AIP | 0.68 | 0.72 | inactive
PPDPFL | 1.02 | 0.5 | inactive
OR4D11 | 0.92 | 0.64 | inactive
ZNF771 | 0.35 | 1.02 | inactive
ZCCHC24 | 0.55 | 1.5 | inactive
CS | 1.04 | 0.38 | inactive
SSX4B | 0.57 | 0.74 | inactive
RPS5 | -0.06 | 1.7 | inactive
SYNGR3 | 0.72 | 1.1 | inactive
LRFN5 | 0.72 | 0.48 | active
AKT2 | 0.51 | 1 | inactive
BST1 | 0.79 | 0.88 | inactive
PNPLA7 | 0.43 | 1.88 | inactive
RTN1 | 0.61 | 1.08 | inactive
MOSPD2 | 0.96 | 0.82 | inactive
POTEH | -0.12 | 2.63 | inactive
LECT2 | 0.91 | 1.1 | inactive
CEP63 | 0.56 | 0.84 | inactive
DEFB121 | 0.27 | 1.91 | inactive
H3C2 | 1.23 | 1.12 | inactive
LRRD1 | 0.69 | 0.72 | inactive
PER1 | 0.72 | 1.68 | inactive
PLLP | 0.47 | 0.4 | inactive
NUP62CL | 0.58 | 1.1 | inactive
HPGDS | 0.33 | 1.48 | inactive
CCT8L1P | 1.11 | 0.58 | inactive
SLC25A23 | 0.75 | 1.54 | inactive
TMEM97 | 0.59 | 1.15 | inactive
TRMT10A | 0.39 | 0.58 | inactive
LGALS8 | 0.43 | 1.27 | inactive
ZGPAT | 0.89 | 0.7 | inactive
CCBE1 | 0.1 | 2.13 | inactive
DMRTC2 | 0.47 | 1.1 | inactive
BPIFC | 0.3 | 2.45 | inactive
RNASEH2A | 1.07 | 0.89 | inactive
C11orf71 | 0.36 | 1.5 | inactive
STK17B | 0.53 | 1.05 | inactive
ZNF281 | 0.65 | 1.29 | inactive
ACTL6B | 0.47 | 1.38 | inactive
NEGR1 | 0.86 | 1.16 | inactive
FAM81A | 0.64 | 1.28 | inactive
SYT2 | 0.95 | 0.5 | inactive
EMP1 | 0.7 | 1.02 | inactive
HS3ST1 | 0.56 | 1.67 | inactive
GTF2E2 | 0.43 | 0.64 | inactive
SLC5A9 | 0.71 | 0.83 | inactive
TUB | 0.74 | 1.06 | inactive
DXO | 0.29 | 0.28 | inactive
MTCL3 | 0.88 | 0.7 | inactive
PHF6 | 1.16 | 0.73 | inactive
RHPN1 | 0.7 | 1.34 | inactive
SPATA31G1 | -0.06 | 4.62 | inactive
VMA21 | 0.35 | 1.98 | inactive

Records listed so far whose target name begins with R or r:
Target gene | cell gain with vemurafenib | lactate per cell with vemurafenib | activity call
RXRA | 0.65 | 1.73 | inactive
RGS7 | 1.34 | 0.76 | inactive
RPS5 | -0.06 | 1.7 | inactive
RTN1 | 0.61 | 1.08 | inactive
RNASEH2A | 1.07 | 0.89 | inactive
RHPN1 | 0.7 | 1.34 | inactive
